{"source": "patent US5659024", "key": {"p53 wild-type [1]": {"molecular_target": "p53 wild-type (UniProt P04637)", "assay": "activity in cells", "conditions": "protein in cells, protein details: pCMV-p53wt"}, "p53 wild-type [2]": {"molecular_target": "p53 wild-type (UniProt P04637)", "assay": "EMSA", "conditions": "label: 32P"}, "[3]": {"conditions": "CAT activation in H358, variant of bax p53-RE-U (-485 to -449), only the site is given"}}, "note": "For some assays here: The comparison behind a weaker result is the experiment's own reference, which may not be listed here. For some assays here: At least one result comes from cells or an extract, where the contact may be indirect. Construct, isoform or probe ends are uncertain for at least one entry."}
{"sequence": "AGACAAGCCTGGGCGTGGGCTATATT (double strand) [bax promotor -474 to -449]", "values": [{"measurement": "activity on this sequence", "setting": "p53 wild-type [1]; [3]", "result": "less active"}]}
{"sequence": "TCACAAGTTAGAGACAAGCCTGGGCGTGGGCTATATT (double strand) [bax p53-RE-U (-485 to -449)]", "values": [{"measurement": "activity on this sequence", "setting": "p53 wild-type [1]; CAT activation in H358, only the site is given", "result": "active"}, {"measurement": "binding result", "setting": "p53 wild-type [2]; complex seen only with anti-p53 antibodies DO-1 and P421, salmon sperm DNA, 25 C, protein translated in vitro, protein details: reticulocyte lysate, from pCMV-p53wt", "result": "binds"}]}
{"sequence": "GGGAATTCCAGACTGCAGTGAGCCATGATTGGGCCACTGCACTCCAGCCTGGGCAACACAGTGAGACCCTGTCTCAAAAAAAAAAAAAAAAAAAAAAAAAAAAACAGGAAAAAACAAACAAACAGAAAAGCAGGCCTGGCGCGGTAGCTCATGCCTGTAATCCCAGCGCTTTGGAAGGCTGAGACGGGGTTATCTCTTGGGCTCACAAGTTAGAGACAAGCCTGGGCGTGGGCTATATTGCTAGATCCAGGTCTCTGCAAAAAACAAAACCACTCAGTTTTTAGTCATCTATAACGTCCTGCCTGGAAGCATGCTATTTTGGGCCTCTGAGCTTTTGCACTTGCTAATTCCTTCTGCGCTGGGGAGAGCT (double strand) [bax promotor -687 to -318]", "values": [{"measurement": "activity on this sequence", "setting": "p53 wild-type [1]; CAT activation in H358, about 30 fold in Saos-2", "result": "active"}]}
{"sequence": "GTAGACTGATATTAACAATACTTACTAATAATAACGTGCCTCATGAAATAAAGATCCGAAAGGAATTGGAATAAAAATTTCCTGCGTCTCATGCCAAGAGGGAAACACCAGAATCAAGTGTTCCGCGTGATTGAAGACACCCCCTCGTCCAAGAATGCAAAGCACATCCAATAAAATAGCTGGATTATAA (double strand) [bcl-2 p53-RE-D (-273 to -84)]", "values": [{"measurement": "activity on this sequence", "setting": "p53 wild-type [1]; CAT repression in H358 cells, SV40 promotor", "result": "active"}, {"measurement": "binding result", "setting": "p53 wild-type [2]; poly dI-dC, room temperature, supershifted by anti-p53 antibody, protein in a lysate after overexpression", "result": "binds"}]}
{"sequence": "TGAGACGGGGTTATCTCTTGGGCTCACAAGTTAGAGACAAGCCTGGGCGTGGGCTATATTGCTAGATCCAGGTCTCTGCAAAAAACAAAACCAC (double strand) [bax promotor -508 to -415]", "values": [{"measurement": "activity on this sequence", "setting": "p53 wild-type [1]; CAT activation in H358", "result": "active"}]}
{"sequence": "TCACAAGTTAGAGACAAGCCT (double strand) [bax promotor -485 to -465]", "values": [{"measurement": "activity on this sequence", "setting": "p53 wild-type [1]; [3]", "result": "less active"}]}
